Results on one substance are retold here after publication PMC3022668.

The chains behind the UniProt entries cited, without tags or fusion partners.
UniProt Q90988: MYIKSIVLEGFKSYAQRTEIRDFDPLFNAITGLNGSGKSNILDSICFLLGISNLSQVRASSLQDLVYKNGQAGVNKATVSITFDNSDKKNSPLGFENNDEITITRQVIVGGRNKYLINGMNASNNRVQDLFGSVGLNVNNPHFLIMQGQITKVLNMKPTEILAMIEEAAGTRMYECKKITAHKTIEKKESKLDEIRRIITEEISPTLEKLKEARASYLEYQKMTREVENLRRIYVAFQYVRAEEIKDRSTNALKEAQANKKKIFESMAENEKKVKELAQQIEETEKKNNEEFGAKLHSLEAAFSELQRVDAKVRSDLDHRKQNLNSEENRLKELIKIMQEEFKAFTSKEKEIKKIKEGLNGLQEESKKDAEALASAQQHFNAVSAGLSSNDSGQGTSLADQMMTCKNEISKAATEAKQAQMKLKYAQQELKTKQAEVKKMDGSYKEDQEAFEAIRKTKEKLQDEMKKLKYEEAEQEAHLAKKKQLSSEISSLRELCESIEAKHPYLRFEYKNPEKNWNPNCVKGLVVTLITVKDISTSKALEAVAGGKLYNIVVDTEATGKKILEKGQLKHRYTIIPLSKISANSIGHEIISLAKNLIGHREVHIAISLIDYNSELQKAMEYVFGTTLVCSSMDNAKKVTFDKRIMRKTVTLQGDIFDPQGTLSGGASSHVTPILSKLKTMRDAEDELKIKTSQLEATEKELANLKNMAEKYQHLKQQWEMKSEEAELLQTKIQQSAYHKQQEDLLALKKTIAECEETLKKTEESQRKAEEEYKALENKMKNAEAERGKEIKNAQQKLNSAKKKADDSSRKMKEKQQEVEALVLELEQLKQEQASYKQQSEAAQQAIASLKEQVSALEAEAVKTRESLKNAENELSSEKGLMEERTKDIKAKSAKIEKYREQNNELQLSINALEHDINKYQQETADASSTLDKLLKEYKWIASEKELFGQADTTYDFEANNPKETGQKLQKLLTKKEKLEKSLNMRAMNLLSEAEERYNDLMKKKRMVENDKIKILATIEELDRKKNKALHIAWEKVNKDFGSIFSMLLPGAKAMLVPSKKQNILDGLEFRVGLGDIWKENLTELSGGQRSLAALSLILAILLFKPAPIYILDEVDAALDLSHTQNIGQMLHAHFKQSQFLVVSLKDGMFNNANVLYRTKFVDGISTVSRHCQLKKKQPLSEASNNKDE

These are yes or no findings as the source states them, for the method shown.

For this test, the target named is untagged wild-type SMC2 (chicken (endogenous in DT40)) (UniProt Q90988). Briefly: far-Western, overlay or dot blot; affinity blotting: crude lysate (input) and eluent run on 4-12% BisTris gels, blots probed with HRP- or AP-conjugated streptavidin for 1 h in 1% BSA/PBT; only the binder purified.

As for “streptavidin (from UniProt P22629 25-183)”, the binding result is recorded as “no binding”.
